Data set [1] deals with Salmonella typhimurium TA100 P450. Kind of data set: Ames mutagenicity test (agar plate method), strain TA100 P450. The format is cell-based. To be noted: TA 100 P450; for Number of revertant colonies per plate, NR 1: plate 1; for Number of revertant colonies per plate, NR 2: plate 2; for Number of revertant colonies per plate, NR3: plate 3. The method, then: (§1) Bacterial growth was confirmed by visual turbidity inspection. […] All experiments were carried out in triplicate.
A general note: In the Ames test, an excess of revertant colonies over the control signals mutagenicity.

Data set [2] has as its system Salmonella typhimurium TA98 P450. The format is cell-based. To be noted: for Number of revertant colonies per plate, NR 1: plate 1; for Number of revertant colonies per plate, NR 2: plate 2. The method, then: as §1
The test system of another data set is Allium cepa. Nature of the data set: Allium cepa root length assay (phytotoxic inhibition of root growth). The class given is in vivo. The method, then:
(§2) Whole-onions test specimens were grown at room temperature (in triplicate). The onions were initially grown for 2 days in tap water. Prior to growing them in tap water, the ring of the root, the primordia at the bottom of the onion bulb, was scraped with a sterile surgical blade to remove all existing root growth. After 2 days of tap water exposure, the lengths of the root fibers of each onion were measured and recorded. This was followed by exposure to the test solutions for another 2 days (tap water was used as the control). […] At the end of the exposure, the onion roots were cut 3 cm from the tip and placed in Carnoy’s fixative solution ([…] (Merck, Germany)) until further microscopic analysis.
The test APCs and their mixtures in different combinations were investigated for their phytotoxic characteristics at 10 µg/L and 100 µg/L concentrations, using A. cepa bioassays. The root length assay relies on evaluating the root length of A. cepa as an indicator endpoint to assess the susceptibility of plants exposed to xenobiotics by evaluating physical impacts on their root growth. The ratio between the root length (mm) (RRL) after and before exposure to test solutions ( ^RLAERLBE ) was used as indices for the APCs’ phytotoxicity.

For another data set, the system named is Daphnia magna. The following applies: toxic unit of the constituent in the LCS mixture.
For data set [3], the system named is root tip meristem cells of Allium cepa. Nature of the data set: Allium cepa root tip microscopic examination (chromosomal aberrations). The format is cell-based. The method, then:
as §2
This was followed by washing the root tips in distilled water, after which they were stained using Feulgen stain for 2–3 min. The stained root tips were then rinsed in distilled water, transferred onto clean glass microscope slides, and counter-stained with acetocarmine. […] The squashed onion root tips were thereafter imaged using a LEICA DM-750 light microscope at × 400 and × 1000 magnifications.
Microscopic evaluation of Allium cepa cells during mitosis was conducted to ascertain the impacts the L, C, and S test samples (lone and mixtures) will have on the genetic materials of the onion roots at cellular levels.

Like-named read-outs stand apart in the source and are kept apart here.

As to `Cc1cc(NS(=O)(=O)c2ccc(N)cc2)no1` [Sulfamethoxazole, sulfamethoxazole], the “Number of revertant colonies per plate, Mean” value in data set [1] (10 µg/L) is given as 257; in data set [1] (100 µg/L) it was 250; in data set [2] (10 µg/L), 13. Further, the “Number of revertant colonies per plate, NR 1” value is given as 270 in data set [1] (10 µg/L), 310 in data set [1] (100 µg/L), 21 in data set [2] (10 µg/L) and 24 in data set [2] (100 µg/L). For the same compound, the “Number of revertant colonies per plate, NR 2” value is given as 230 in data set [1] (10 µg/L), 220 in data set [1] (100 µg/L), 14 in data set [2] (10 µg/L) and 20 in data set [2] (100 µg/L). In addition, the entries for the “Number of revertant colonies per plate, NR3” value in data set [1] (10 µg/L) and in data set [1] (100 µg/L) were 270 and 220, respectively. Also, the “A. cepa root exposure R.L” value in the data set on Allium cepa (10 µg/L) and in the data set with Allium cepa (100 µg/L) was “-” throughout. In the data set with Daphnia magna, the “Toxic unit 24 hrs” value is listed as 0.38. For the same compound, in the data set with Daphnia magna (48 h), the “Toxic unit 48 hrs” value is listed as 1.17. In addition, the “A. cepa root exposure C.A (chromosomal aberration)” value is on record as “-” in data set [3] (10 µg/L) and “+” in data set [3] (100 µg/L).
`O=C(O)c1cn(C2CC2)c2cc(N3CCNCC3)c(F)cc2c1=O` [Ciprofloxacin, ciprofloxacin]: in data set [1] (10 µg/L), the “Number of revertant colonies per plate, NR 2” value was found to be 220. Also, the “A. cepa root exposure R.L” value in the data set on Allium cepa (10 µg/L) and in the data set with Allium cepa (100 µg/L) was “-” in each case. For the same compound, the “Toxic unit 24 hrs” value in the data set on Daphnia magna stood at 0.38. In addition, the figures for the “A. cepa root exposure C.A (chromosomal aberration)” value in data set [3] (10 µg/L) and in data set [3] (100 µg/L) were “-” and “+”, respectively.

Source of the values: PMC10656311, “Evaluation of the probable synergistic toxicity of selected potentiated antiretroviral and antibiotics on some aquatic biomarker organisms” (Environmental Monitoring and Assessment, 2023).
